Experimental data as given in article PMC4550056.
Results are given in words; binding and its absence hold for the method and conditions named. In cells and extracts the contact can be indirect. Some binding calls cover weakened binding; strength is not graded here. Tags and fused reporters may be left off the sequences shown.

Amino acid sequences for entries named in this document (tags omitted). Residues count along the entry.
UniProt Q92547, residues 444-991: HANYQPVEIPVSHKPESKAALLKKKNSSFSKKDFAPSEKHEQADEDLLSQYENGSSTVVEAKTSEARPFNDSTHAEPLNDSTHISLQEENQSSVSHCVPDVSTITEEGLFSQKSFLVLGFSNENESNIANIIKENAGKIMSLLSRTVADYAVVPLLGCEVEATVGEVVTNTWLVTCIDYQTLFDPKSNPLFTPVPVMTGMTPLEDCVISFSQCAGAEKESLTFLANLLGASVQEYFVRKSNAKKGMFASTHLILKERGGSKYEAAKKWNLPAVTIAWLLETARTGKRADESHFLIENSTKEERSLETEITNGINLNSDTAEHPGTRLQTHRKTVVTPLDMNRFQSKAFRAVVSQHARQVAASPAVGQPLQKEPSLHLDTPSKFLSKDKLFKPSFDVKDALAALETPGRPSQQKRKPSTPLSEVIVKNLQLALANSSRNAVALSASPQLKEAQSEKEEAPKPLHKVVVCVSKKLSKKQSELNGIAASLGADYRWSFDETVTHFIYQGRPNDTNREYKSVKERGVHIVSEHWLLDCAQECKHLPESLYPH

Target: T1, c-Myc-tagged human mutY homolog (c-Myc-hMYH), full length (human) (UniProt Q9UIF7)
T1 sequence: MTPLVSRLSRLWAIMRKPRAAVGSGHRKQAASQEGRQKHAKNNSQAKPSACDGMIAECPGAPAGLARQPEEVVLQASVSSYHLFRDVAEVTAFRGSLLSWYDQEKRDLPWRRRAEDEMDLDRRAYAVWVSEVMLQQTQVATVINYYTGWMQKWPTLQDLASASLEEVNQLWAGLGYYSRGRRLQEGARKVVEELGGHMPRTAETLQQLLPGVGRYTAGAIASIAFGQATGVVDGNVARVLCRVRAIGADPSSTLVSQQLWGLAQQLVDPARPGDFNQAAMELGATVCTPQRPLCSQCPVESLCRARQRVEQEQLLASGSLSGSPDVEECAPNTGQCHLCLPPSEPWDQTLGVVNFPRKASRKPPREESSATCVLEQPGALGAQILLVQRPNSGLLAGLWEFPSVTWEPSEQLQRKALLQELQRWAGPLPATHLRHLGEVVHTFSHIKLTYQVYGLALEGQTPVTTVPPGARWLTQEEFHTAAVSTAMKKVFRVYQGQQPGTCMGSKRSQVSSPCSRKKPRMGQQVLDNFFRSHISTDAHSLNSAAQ
Test: co-IP; HEK293 cells co-transfected; lysates precipitated with anti-c-Myc antibody and protein A/G PLUS-agarose beads; blotted with anti-GST and anti-c-Myc

binding: binds
Substance: GST-tagged D2 region of hTopBP1 (BRCT 4-6, amino acids 444-991) (from UniProt Q92547 444-991) (domain or fragment)
